According to PubChem BioAssay AID540256 (National Center for Advancing Translational Sciences (NCATS), 2011):
The whole screen tested about 300,000 compounds, of which about 3,700 (1.2%) were called active. Inconclusive means that the source gave no clear call. Such entries were picked first, then a sample of the others. The call rests on the fitted dose curve; tested in HEK293 cells. A potency beside an inconclusive call is a rough fit, not a confirmed value.

Assay: qHTS for Inhibitors of binding or entry into cells for Lassa Virus; further: nearly all actives have a fitted effect of over 50% in size
Conditions: Lassa virus pseudotype entry inhibition, cell reporter; series mostly up to 37.9 µM
Potency means the concentration at half of the fitted maximal effect.

Question: With `CC(C)COc1ccc(C(=O)Nc2cc(-c3ccccc3)no2)cc1` as the compound, how does the Potency read?
Answer: inconclusive: 20 µM [activator, partial curve, poor fit]

Question: Which Potency does the source give for `CCOC(=O)C1CCN(c2ncnc3c2cnn3-c2ccc(Cl)cc2)CC1` here?
Answer: inconclusive: 2 µM [inhibitor, partial curve]

Question: Which Potency does the source give for `O=C(COc1cccc2c1CCN(Cc1ccc(Br)cc1)C2=O)NCc1ccco1` here?
Answer: inconclusive: 14.1 µM [inhibitor, partial curve, poor fit]

Question: Which Potency does the source give for `CCOc1cc(N2CCOCC2)c(OCC)cc1NC(=O)c1ccc(NC(C)=O)cc1` here?
Answer: inconclusive: 0.794 µM [inhibitor, full curve, poor fit]

Question: Which Potency does the source give for `O=C(NCc1cccc(F)c1)c1ccc(NC(=O)c2nsc3ccccc23)cc1` here?
Answer: inactive

Question: With `COc1ccc(-c2c(C)c3ccc(O)c(CN4CCN(CCO)CC4)c3oc2=O)cc1OC` as the compound, how does the Potency read?
Answer: inactive

Question: Which Potency does the source give for `Cc1ccc(CCNC(=O)c2c(C)oc3ncn(CC(C)C)c(=O)c23)cc1` here?
Answer: inactive

Question: With `CC(C)(C)OC(=O)N1CCC(c2c(C(=O)NCCc3ccccc3)cnn2-c2ccc(F)cc2F)CC1` as the compound, how does the Potency read?
Answer: inconclusive: 7.08 µM [inhibitor, full curve, poor fit]

Question: With `COc1cc(Cl)c(C)cc1NC(=O)CC(c1ccc(F)cc1)N1Cc2ccccc2C1=O` (stereo not drawn) as the compound, how does the Potency read?
Answer: inactive

Question: For `COc1ccc(/C=C/C(=O)c2sc(-c3ccccc3)nc2C)cc1`, which Potency is on record?
Answer: inactive

Question: With `CCOC(=O)c1c(NC(=O)COc2cccc(C)c2C)sc2c1CCC(CC)C2` (stereo not drawn) as the compound, how does the Potency read?
Answer: inconclusive: 5.62 µM [activator, single point]

Question: With `OCC1(Cc2cccc(C(F)(F)F)c2)CCN(Cc2cc(F)cc(F)c2)CC1` as the compound, how does the Potency read?
Answer: inconclusive: 15.8 µM [inhibitor, partial curve, poor fit]

Question: For `Cc1nc2ccccc2n1C1CCN(C(=O)Nc2ccccc2)CC1`, which Potency is on record?
Answer: inactive

Question: Which Potency does the source give for `CCCCS(=O)(=O)c1oc(-c2ccc(F)cc2)nc1S(=O)(=O)c1ccc(C)cc1` here?
Answer: inconclusive: 35.5 µM [inhibitor, single point]

Question: With `O[C@@H]1CO[C@@H](C=Cc2ccccc2)[C@H]1OCc1cccc(Br)c1` as the compound, how does the Potency read?
Answer: inconclusive: 0.0531 µM [inhibitor, full curve, poor fit]

Question: Which Potency does the source give for `Cc1c(C(=O)N2CCOCC2)oc2c1-c1nn(CC(=O)NCc3cccc(Cl)c3)cc1CC2` here?
Answer: inactive

Question: Which Potency does the source give for `O=C(NNc1nc(Nc2ccccc2)nc(N2CCOCC2)n1)Nc1ccc(Cl)cc1` here?
Answer: inconclusive: 20 µM [inhibitor, partial curve, poor fit]

Question: With `O=C(/C=C/C=C/c1ccccc1)CC1(O)C(=O)N(CCc2ccccc2)c2ccccc21` (stereo not drawn) as the compound, how does the Potency read?
Answer: inconclusive: 10 µM [inhibitor, partial curve]

Question: With `COc1ccc(OCc2cc(C(=O)NCCN3CCCc4ccccc43)no2)c(Cl)c1` as the compound, how does the Potency read?
Answer: inconclusive: 3.98 µM [inhibitor, partial curve, poor fit]

Question: Which Potency does the source give for `O=C(c1ccc2c(c1)OCO2)N1CCN(S(=O)(=O)c2ccc(Cl)cc2)CC1` here?
Answer: inconclusive: 2.51 µM [inhibitor, single point]

Question: Which Potency does the source give for `CCN(CC)c1ccc(/C=C/C(=O)C2C(=O)C=C(C)OC2=O)cc1` (stereo not drawn) here?
Answer: inconclusive: 8.91 µM [activator, partial curve, poor fit]

Question: Which Potency does the source give for `COc1cc(/C=N/NC(=S)Nc2cccc(C(=O)O)c2)ccc1O` here?
Answer: inconclusive: 5.8 µM [inhibitor, full curve, poor fit]

Question: Which Potency does the source give for `COc1ccccc1NC(=O)COc1ccc(-c2nn(C)c(=O)c3ccccc23)cc1` here?
Answer: inactive

Question: With `CN(Cc1ccccc1)C(=O)N[C@@H](Cc1ccccc1)C(=O)O` as the compound, how does the Potency read?
Answer: inactive

Question: With `O=C(Nc1ccc2c(c1)CCC2)c1ccc(F)c(S(=O)(=O)N2CCOCC2)c1` as the compound, how does the Potency read?
Answer: inconclusive: 2.31 µM [activator, partial curve, poor fit]

Question: Which Potency does the source give for `COc1cccc(CN2C(=O)CN(C3CCCCC3)C(=O)C2c2ccc(F)cc2)c1` (stereo not drawn) here?
Answer: inconclusive: 3.66 µM [inhibitor, full curve]

Question: Which Potency does the source give for `C/C(=N\NC(=O)c1nc(C)cc(C)n1)c1ccccc1` here?
Answer: inconclusive: 0.82 µM [activator, full curve, poor fit]

Question: Which Potency does the source give for `O=C(Cc1ccccc1)Nc1cccc(NC(=O)c2cccs2)c1` here?
Answer: inactive

Question: Which Potency does the source give for `Cc1cc(NC(=O)CSc2nnc(C)o2)no1` here?
Answer: inconclusive: 5.62 µM [activator, partial curve, poor fit]

Question: For `O=S(=O)(c1ccc(Cl)s1)N1CCN(C/C=C/c2ccccc2)CC1`, which Potency is on record?
Answer: active: 23.1 µM

Question: For `Cc1ccc(C)c(CSc2nnc(C)n3c2cc2sccc23)c1`, which Potency is on record?
Answer: inactive

Question: For `CCN1CCN(CCCNC(=O)C2c3ccccc3C(=O)N(c3ccc(OC)cc3)C2c2ccc(OC)cc2)CC1` (stereo not drawn), which Potency is on record?
Answer: inactive

Question: Which Potency does the source give for `Cc1ccc(NC(=O)C(OC(=O)c2ccc(O)cc2)c2ccccc2)cc1Cl` (stereo not drawn) here?
Answer: inconclusive: 2.91 µM [inhibitor, single point]

Question: For `Cc1ccc(O)c(C2=Nc3ccccc3N=C(c3cccc([N+](=O)[O-])c3)C2)c1`, which Potency is on record?
Answer: inactive

Question: For `O=C(CN1CCN(C(=O)c2ccccc2)CC1)Nc1ccc(Cl)cc1F`, which Potency is on record?
Answer: inconclusive: 5.62 µM [inhibitor, full curve, poor fit]

Question: Which Potency does the source give for `CC1(C)CC2=C(CO1)C(=S)NC(c1ccccc1)N2CC1CCCO1` (stereo not drawn) here?
Answer: inactive

Question: With `Cc1c(NC(=O)CCC2CCCCC2)cc(C(=O)N2CCOCC2)cc1[N+](=O)[O-]` as the compound, how does the Potency read?
Answer: inconclusive: 35.5 µM [inhibitor, partial curve, poor fit]

Question: For `CC(C)C(=O)Nc1nc2c(s1)CC(C(C)(C)C)CC2` (stereo not drawn), which Potency is on record?
Answer: inconclusive: 2.24 µM [activator, single point]

Question: For `CC(c1ccncn1)N(C)C(=O)c1ccc2oc(Cc3ccccc3)nc2c1` (stereo not drawn), which Potency is on record?
Answer: inactive

Question: With `CCn1cc(C(=O)NCc2cccc(F)c2)c(=O)c2cc(F)c(N3CCN(C(=O)c4ccco4)CC3)cc21` as the compound, how does the Potency read?
Answer: inconclusive: 25.1 µM [inhibitor, single point]

Question: Which Potency does the source give for `O=C(NC(=S)Nc1ccc2c(c1)OCO2)c1ccccc1` here?
Answer: inconclusive: 1.58 µM [activator, partial curve, poor fit]

Question: For `COc1ccc(C(=O)Cn2nnc(-c3ccccc3NC(=O)C3CCCCC3)n2)cc1`, which Potency is on record?
Answer: inconclusive: 25.9 µM [inhibitor, single point]

Question: For `C/C(CC(C)(C)C1CCCCC1)=N\NC(N)=S`, which Potency is on record?
Answer: active: 16.4 µM

Question: For `Cc1ccc(C)c(N2CCN(CCCNC(=O)c3cnn(-c4ccc(F)cc4)c3C3CCN(C(=O)OC(C)(C)C)CC3)CC2)c1`, which Potency is on record?
Answer: inactive

Question: Which Potency does the source give for `COC(=O)c1ccc(N2CN=C(c3ccc(C)cc3)NC2=S)cc1` here?
Answer: inconclusive: 5.8 µM [inhibitor, full curve, poor fit]

Question: With `CCOC(=O)COc1ccc2c(c1)c(C(C)=O)c(C)n2-c1ccc(OC)cc1` as the compound, how does the Potency read?
Answer: inconclusive: 0.316 µM [inhibitor, partial curve, poor fit]

Question: Which Potency does the source give for `CCN(CC)c1ccc(-c2c(C#N)c(N)nc(OC)c2C#N)cc1` here?
Answer: inconclusive: 20.6 µM [inhibitor, partial curve, poor fit]

Question: Which Potency does the source give for `Cc1cc(C)c2c(CCl)cc(=O)oc2c1` here?
Answer: inconclusive: 14.1 µM [inhibitor, single point]

Question: Which Potency does the source give for `Cc1ccc(CS(=O)(=O)CCC(=O)NCCN2CCCCC2C)cc1` (stereo not drawn) here?
Answer: inconclusive: 35.5 µM [activator, single point]

Question: Which Potency does the source give for `Cc1ccc(-n2cc(CNCCc3ncc(C)[nH]3)c(-c3ccc(F)cc3)n2)cc1` here?
Answer: inconclusive: 35.5 µM [inhibitor, single point]

Question: For `Cc1ccc(-c2ccccc2NC(=O)CS(=O)CC(=O)Nc2ccc(C)c(Cl)c2)o1` (stereo not drawn), which Potency is on record?
Answer: inconclusive: 35.5 µM [inhibitor, single point]

Question: Which Potency does the source give for `CCCn1c(SCC(=O)Nc2cc(Cl)ccc2OC)n[nH]c1=O` here?
Answer: inactive

Question: Which Potency does the source give for `Cc1ccc(-n2c(=O)c3c(c4cc(C)ccc4n3C)n(CC(=O)c3ccc(Cl)cc3)c2=O)cc1` here?
Answer: inactive

Question: With `COC(=O)c1ccccc1NC(=O)c1cccc(COc2ccccc2Cl)c1` as the compound, how does the Potency read?
Answer: inconclusive: 10 µM [inhibitor, partial curve, poor fit]

Question: With `Cc1cc(N2C(=O)c3ccccc3C2=O)n(C)n1` as the compound, how does the Potency read?
Answer: inactive

Question: With `O=C1NC(c2ccc3c(c2)OCO3)Oc2ccccc21` (stereo not drawn) as the compound, how does the Potency read?
Answer: inactive

Question: Which Potency does the source give for `CC(C)Oc1ccccc1NC(=O)CSc1nccn1C` here?
Answer: inconclusive: 20 µM [activator, partial curve, poor fit]

Question: For `O=C(CCN1C(=O)/C(=C\c2ccccc2)SC1=S)Nc1ccc(C(=O)O)cc1`, which Potency is on record?
Answer: inconclusive: 5.62 µM [inhibitor, single point]

Question: With `COc1ccc(N(Cc2ccccc2)C(=O)CSc2nnc(Cn3nnc4ccccc43)o2)cc1` as the compound, how does the Potency read?
Answer: inconclusive: 29.1 µM [inhibitor, single point]

Question: With `Cc1ccc2c(c1)NP(=S)(Oc1ccccc1)N2` (stereo not drawn) as the compound, how does the Potency read?
Answer: inconclusive: 12.6 µM [activator, single point]

Question: For `Cc1noc(/C=C/c2ccccc2F)c1S(=O)(=O)N1CCC(C(=O)NCC(C)c2ccccc2)CC1` (stereo not drawn), which Potency is on record?
Answer: inactive

Question: With `O=C(CS(=O)(=O)c1cccc2nsnc12)NCc1ccccc1` as the compound, how does the Potency read?
Answer: inactive

Question: For `C=C1C(=O)C=C2CN(C(=O)c3ccccc3)[C@@](Cc3ccc(F)cc3)(C(=O)OC)[C@@H]12`, which Potency is on record?
Answer: active: 20.6 µM

Question: With `C(=N\Nc1nc2ccccc2s1)/c1ccc2c(c1)OCO2` as the compound, how does the Potency read?
Answer: inconclusive: 14.1 µM [inhibitor, single point]

Question: With `CCCn1c(=O)c2ccccc2n2c(SCC(=O)NCc3cccs3)nnc12` as the compound, how does the Potency read?
Answer: inactive

Question: For `O=C(Cn1c(=O)nc(-c2ccccc2)c2ccccc21)N1CCN(c2ccc(F)cc2)CC1`, which Potency is on record?
Answer: inactive

Question: With `CCN(CC)C(=O)CN(c1cc2c(cc1OC)oc1ccccc12)S(=O)(=O)c1ccc(C)cc1` as the compound, how does the Potency read?
Answer: inconclusive: 20 µM [inhibitor, partial curve]

Question: With `COc1ccc(C(=O)COC(=O)[C@@H](NS(=O)(=O)c2ccccc2)C(C)C)cc1` as the compound, how does the Potency read?
Answer: inconclusive: 3.16 µM [activator, single point]
